# Taken from: PubChem BioAssay AID686938 (Drosophila RNAi Screening Center, 2013)
# Assay: 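Looking for CRAC channel components and the factors controlling them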 (primary screen)
# System: Drosophila S2R+ cells
# Reagent: long dsRNA against Drosophila genes, about 0.25 µg dsRNA per well, roughly 10,000 cells
# Timing: 5 days of knock-down before the calcium assay
# Conditions: thapsigargin (SERCA pump blocker) to empty calcium stores; entry signal taken 4 min after adding it
# Detection: 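Per-well fluo-4 fluorescence in two replicates, unnormalised, measured in resting cells and 4 min after store depletion by the SERCA blocker thapsigargin; ratio of the two present in few wells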
# Direction: calcium entry signal: higher = stronger calcium signal after store depletion; entry to resting ratio: higher = more calcium entry relative to resting level; resting calcium signal: higher = higher resting calcium signal
# Active means: 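Hit if the duplicate-averaged plate z-score for entry over resting signal is under −3; wells with weak total dye signal (Fmax z < −2) or more than 5 off-targets removed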
# Meaning of the calls: active = strongly reduced calcium entry; inactive = no strong reduction
# The screen tested about 23,000 reagents; below is a random part of those with a known target gene and a result. Over the whole deposit, 75 (0.33%) were called active. 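Raw plate signals without normalisation; calls rest on plate z-scores that were not deposited; ratio present for only 364 wells.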 Reagents against one gene are numbered here. Names joined by + are all predicted targets of the reagent. Reagent sequences are not shown. Not given: the dose of the treatment.
gene knocked down,reagent no.,"calcium entry signal, replicate 1 (fluorescence units)","calcium entry signal, replicate 2 (fluorescence units)",entry to resting ratio,"resting calcium signal, replicate 1 (fluorescence units)","resting calcium signal, replicate 2 (fluorescence units)",Outcome
CG31674,1,3.42e7,5.78e7,,1.60e7,2.09e7,inactive
CG9875,1,3.10e7,3.55e7,,1.60e7,1.66e7,inactive
CG12016 + Dpm2,1,3.14e7,2.16e7,,2.28e7,1.12e7,inactive
mRpL46,1,4.53e7,3.50e7,,2.09e7,1.57e7,inactive
CG9287,1,3.88e7,5.23e7,,1.83e7,2.28e7,inactive
CG9287,2,3.74e7,4.03e7,,1.81e7,2.18e7,inactive
bisc,1,4.59e7,,,2.29e7,,inactive
Sry-beta,1,3.75e7,4.27e7,,1.63e7,2.02e7,inactive
CG2201,1,3.42e7,,,1.71e7,,inactive
CG10737,1,3.26e7,2.98e7,,1.50e7,1.37e7,inactive
CG43069,1,3.77e7,4.04e7,,1.74e7,2.03e7,inactive
Ir64a,1,3.27e7,4.65e7,,1.66e7,2.32e7,inactive
Ir64a,2,2.84e7,4.79e7,,1.38e7,2.11e7,inactive
Polr2H,1,1.78e7,1.62e7,,1.52e7,9.82e6,inactive
ng1,1,3.91e7,5.83e7,2,1.96e7,2.43e7,inactive
CG14269,1,3.68e7,7.05e7,2.1,1.76e7,3.03e7,inactive
CG2861,1,3.71e7,4.65e7,,1.86e7,2.19e7,inactive
CG32695,1,4.24e7,5.30e7,,2.01e7,2.24e7,inactive
CG12607,1,1.55e7,2.82e7,,7.49e6,1.24e7,inactive
beta-Man,1,3.95e7,4.31e7,,1.85e7,3.02e7,inactive
beta-Man,2,3.17e7,4.09e7,,1.55e7,1.85e7,inactive
zld,1,4.97e7,3.81e7,,2.25e7,1.59e7,inactive
zld,2,3.30e7,3.34e7,,1.67e7,1.53e7,inactive
zld,3,4.70e7,4.29e7,,2.01e7,1.64e7,inactive
CG12715,1,3.70e7,5.05e7,,1.85e7,2.46e7,inactive
Nop17l,1,3.21e7,2.73e7,,1.38e7,1.24e7,inactive
Picot,1,4.26e7,4.40e7,,1.83e7,2.08e7,inactive
CG33461,1,4.37e7,3.21e7,,2.50e7,1.56e7,inactive
CG43393,1,2.95e7,4.65e7,,1.35e7,2.06e7,inactive
Membrin,1,3.02e7,5.88e7,,1.59e7,2.57e7,inactive
CG5096,1,3.11e7,4.66e7,,1.48e7,1.91e7,inactive
Elovl7,1,5.10e7,3.28e7,,2.41e7,1.57e7,inactive
Elovl7,2,4.14e7,2.69e7,,2.46e7,1.42e7,inactive
Nnp-1,1,2.07e7,1.41e7,,1.10e7,7.72e6,inactive
Cpr30F,1,5.94e7,,,2.61e7,,inactive
CG11656,1,3.97e7,5.16e7,,1.68e7,2.09e7,inactive
Jig,1,2.53e7,3.87e7,,1.25e7,4.91e7,inactive
CG14230,1,2.44e7,2.10e7,,1.29e7,1.02e7,inactive
Pde11,1,7.13e7,3.36e7,,3.14e7,1.70e7,inactive
Pde11,2,3.52e7,3.56e7,,1.84e7,1.56e7,inactive
loj,1,3.52e7,2.36e7,,2.50e7,1.01e7,inactive
CG14015,1,2.07e7,1.80e7,,1.12e7,8.68e6,inactive
CG33340,1,4.49e7,4.75e7,,2.17e7,1.73e7,inactive
CR18275 + CG13373,1,2.52e7,3.48e7,1.9,1.30e7,1.40e7,inactive
CG17196,1,3.30e7,6.47e7,,1.76e7,2.47e7,inactive
Achl,1,2.53e7,3.12e7,,1.29e7,1.35e7,inactive
CG32110,1,3.72e7,4.42e7,,1.74e7,2.01e7,inactive
prd,1,4.61e7,,,2.10e7,,inactive
Or19b + Or19a,1,3.89e7,4.13e7,,2.41e7,1.93e7,inactive
CG16879 (retired record),1,4.71e7,4.30e7,,1.92e7,2.05e7,inactive
CG16879 (retired record),2,2.23e7,3.91e7,,1.20e7,1.71e7,inactive
CG31524,1,2.09e7,3.09e7,,1.10e7,1.51e7,inactive
CG4267,1,1.83e7,2.75e7,,1.13e7,1.24e7,inactive
CG4267,2,2.89e7,3.31e7,,1.47e7,1.64e7,inactive
CG16959,1,3.72e7,4.31e7,,1.76e7,2.96e7,inactive
CG14247,1,2.60e7,4.99e7,,1.33e7,2.05e7,inactive
CG13705,1,2.86e7,4.54e7,,1.26e7,1.77e7,inactive
CG13705,2,3.54e7,4.16e7,,1.85e7,1.90e7,inactive

Laid out differently: entries from further up
Nop17l
- calcium entry signal, replicate 1 (fluorescence units): 3.21e7
- calcium entry signal, replicate 2 (fluorescence units): 2.73e7
- resting calcium signal, replicate 1 (fluorescence units): 1.38e7
- resting calcium signal, replicate 2 (fluorescence units): 1.24e7
- Outcome: inactive

Picot
- calcium entry signal, replicate 1 (fluorescence units): 4.26e7
- calcium entry signal, replicate 2 (fluorescence units): 4.40e7
- resting calcium signal, replicate 1 (fluorescence units): 1.83e7
- resting calcium signal, replicate 2 (fluorescence units): 2.08e7
- Outcome: inactive

CG33461
- calcium entry signal, replicate 1 (fluorescence units): 4.37e7
- calcium entry signal, replicate 2 (fluorescence units): 3.21e7
- resting calcium signal, replicate 1 (fluorescence units): 2.50e7
- resting calcium signal, replicate 2 (fluorescence units): 1.56e7
- Outcome: inactive

CG43393
- calcium entry signal, replicate 1 (fluorescence units): 2.95e7
- calcium entry signal, replicate 2 (fluorescence units): 4.65e7
- resting calcium signal, replicate 1 (fluorescence units): 1.35e7
- resting calcium signal, replicate 2 (fluorescence units): 2.06e7
- Outcome: inactive

Membrin
- calcium entry signal, replicate 1 (fluorescence units): 3.02e7
- calcium entry signal, replicate 2 (fluorescence units): 5.88e7
- resting calcium signal, replicate 1 (fluorescence units): 1.59e7
- resting calcium signal, replicate 2 (fluorescence units): 2.57e7
- Outcome: inactive

CG5096
- calcium entry signal, replicate 1 (fluorescence units): 3.11e7
- calcium entry signal, replicate 2 (fluorescence units): 4.66e7
- resting calcium signal, replicate 1 (fluorescence units): 1.48e7
- resting calcium signal, replicate 2 (fluorescence units): 1.91e7
- Outcome: inactive

Elovl7 #1
- calcium entry signal, replicate 1 (fluorescence units): 5.10e7
- calcium entry signal, replicate 2 (fluorescence units): 3.28e7
- resting calcium signal, replicate 1 (fluorescence units): 2.41e7
- resting calcium signal, replicate 2 (fluorescence units): 1.57e7
- Outcome: inactive

Elovl7 #2
- calcium entry signal, replicate 1 (fluorescence units): 4.14e7
- calcium entry signal, replicate 2 (fluorescence units): 2.69e7
- resting calcium signal, replicate 1 (fluorescence units): 2.46e7
- resting calcium signal, replicate 2 (fluorescence units): 1.42e7
- Outcome: inactive
